Test results published in patent US20030125523A1 (VEGENICS, published 2003).
Results are given in words; binding and its absence hold for the method and conditions named. Some entries that bind do so weakly or less than the wild type. For some assays here: Sequences can lack the tags named with a protein.

By UniProt entry, the sequences of proteins in these tests, tags left out. Residues count along the entry.
UniProt O14786, residues 22-923: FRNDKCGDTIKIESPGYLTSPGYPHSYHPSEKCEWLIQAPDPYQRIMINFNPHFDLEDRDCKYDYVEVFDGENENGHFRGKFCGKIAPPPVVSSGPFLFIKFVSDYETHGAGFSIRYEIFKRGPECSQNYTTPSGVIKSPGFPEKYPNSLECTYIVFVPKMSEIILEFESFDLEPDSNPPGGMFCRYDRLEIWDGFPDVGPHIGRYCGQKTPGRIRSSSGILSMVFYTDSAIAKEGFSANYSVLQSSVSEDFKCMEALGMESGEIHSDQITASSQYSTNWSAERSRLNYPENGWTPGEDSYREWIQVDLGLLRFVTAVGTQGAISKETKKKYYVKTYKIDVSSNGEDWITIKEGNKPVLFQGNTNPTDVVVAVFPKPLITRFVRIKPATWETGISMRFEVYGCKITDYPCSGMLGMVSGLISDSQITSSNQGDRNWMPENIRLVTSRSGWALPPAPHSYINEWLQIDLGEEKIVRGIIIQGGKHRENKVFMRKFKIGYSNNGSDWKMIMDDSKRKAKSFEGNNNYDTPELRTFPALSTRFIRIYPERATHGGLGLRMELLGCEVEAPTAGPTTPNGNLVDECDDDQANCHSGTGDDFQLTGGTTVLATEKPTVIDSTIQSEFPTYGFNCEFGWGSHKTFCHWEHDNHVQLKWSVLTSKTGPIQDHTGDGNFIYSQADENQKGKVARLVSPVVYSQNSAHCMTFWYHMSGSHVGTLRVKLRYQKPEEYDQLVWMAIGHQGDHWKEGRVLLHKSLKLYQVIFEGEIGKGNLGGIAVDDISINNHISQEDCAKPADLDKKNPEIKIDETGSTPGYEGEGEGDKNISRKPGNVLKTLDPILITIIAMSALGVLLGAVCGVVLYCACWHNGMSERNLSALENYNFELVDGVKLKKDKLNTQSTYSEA

T1: soluble Neuropilin-1-Ig fusion protein (extracellular domain of mouse NP-1 fused to the human IgG Fc-part) (mouse; human) (UniProt P97333)
T1 sequence (looked up): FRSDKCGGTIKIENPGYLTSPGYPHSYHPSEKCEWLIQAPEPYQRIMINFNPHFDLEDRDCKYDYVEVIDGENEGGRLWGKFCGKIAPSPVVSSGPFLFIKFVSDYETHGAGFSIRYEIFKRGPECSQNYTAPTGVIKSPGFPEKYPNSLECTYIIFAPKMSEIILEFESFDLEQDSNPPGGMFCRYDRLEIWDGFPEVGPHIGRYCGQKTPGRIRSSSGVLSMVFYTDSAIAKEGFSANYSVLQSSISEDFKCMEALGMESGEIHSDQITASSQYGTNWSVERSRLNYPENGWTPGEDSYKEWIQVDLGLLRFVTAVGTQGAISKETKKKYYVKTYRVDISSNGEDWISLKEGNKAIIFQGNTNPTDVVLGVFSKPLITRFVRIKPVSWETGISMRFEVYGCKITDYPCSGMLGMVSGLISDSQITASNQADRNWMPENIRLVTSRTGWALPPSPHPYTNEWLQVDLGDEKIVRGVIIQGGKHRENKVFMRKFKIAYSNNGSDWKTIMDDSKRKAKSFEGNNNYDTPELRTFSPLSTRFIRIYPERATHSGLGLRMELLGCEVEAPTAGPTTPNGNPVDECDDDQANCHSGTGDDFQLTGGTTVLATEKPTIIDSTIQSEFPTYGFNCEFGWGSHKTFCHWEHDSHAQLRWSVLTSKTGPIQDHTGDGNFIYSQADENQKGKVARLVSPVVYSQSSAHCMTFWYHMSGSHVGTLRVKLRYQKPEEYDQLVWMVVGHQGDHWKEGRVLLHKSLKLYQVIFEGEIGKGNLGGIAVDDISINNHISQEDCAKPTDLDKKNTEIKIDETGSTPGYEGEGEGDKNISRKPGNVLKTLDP


Experiments:
[1] = target: NP-1 expressed on PAE-NP-1 cells (UniProt O14786); assay: competition of 125I-hVEGF165 (1 ng/ml) binding to PAE-NP-1 cells
[2] = target: T1, soluble Neuropilin-1-Ig fusion protein (extracellular domain of mouse NP-1 fused to the human IgG Fc-part) (mouse; human); assay: precipitation of 35S-labelled growth factor from conditioned medium with NP-1-Ig on protein A sepharose, SDS-PAGE

binding [1]	binding [2]	Binder
binds	–	mVEGF164 (ligand, mouse, UniProt Q00731-2 27-190, looked up) APTTEGEQKSHEVIKFMDVYQRSYCRPIETLVDIFQEYPDEIEYIFKPSCVPLMRCAGCCNDEALECVPTSESNITMQIMRIKPHQSQHIGEMSFLQHSRCECRPKKDRTKPENHCEPCSERRKHLFVQDPQTCKCSCKNTDSRCKARQLELNERTCRCDKPRR
–	binds	PlGF-2 (ligand, UniProt P49763-3 19-170, looked up) LPAVPPQQWALSAGNGSSEVEVVPFQEVWGRSYCRALERLVDVVSEYPSEVEHMFSPSCVSLLRCTGCCGDENLHCVPVETANVTMQLLKIRSGDRPSYVELTFSQHVRCECRPLREKMKPERRRPKGRGKRRREKQRPTDCHLCGDAVPRR
